For series [1], the target named is NF-kB p65 (RelA) (rat (primary hepatic stellate cells)) (UniProt Q7TQN4). Briefly: EMSA. The conditions noted are these: p65/p65 homodimer, CCN2-treated HSC; 20 ul, 6 ug nuclear extract (8 ug for supershift), 1 ug poly dI:dC, 0.2 ng 32P probe, 4 C 30 min; 4% native PAGE (8% for supershift); salt and pH not stated; protein in an extract; label: 32P end label. In general terms: A gel shift assay detects complexes by their altered migration in electrophoresis.

Sequences of proteins named here, by UniProt entry; tags and fusion partners are left off.
UniProt Q7TQN4, whole entry: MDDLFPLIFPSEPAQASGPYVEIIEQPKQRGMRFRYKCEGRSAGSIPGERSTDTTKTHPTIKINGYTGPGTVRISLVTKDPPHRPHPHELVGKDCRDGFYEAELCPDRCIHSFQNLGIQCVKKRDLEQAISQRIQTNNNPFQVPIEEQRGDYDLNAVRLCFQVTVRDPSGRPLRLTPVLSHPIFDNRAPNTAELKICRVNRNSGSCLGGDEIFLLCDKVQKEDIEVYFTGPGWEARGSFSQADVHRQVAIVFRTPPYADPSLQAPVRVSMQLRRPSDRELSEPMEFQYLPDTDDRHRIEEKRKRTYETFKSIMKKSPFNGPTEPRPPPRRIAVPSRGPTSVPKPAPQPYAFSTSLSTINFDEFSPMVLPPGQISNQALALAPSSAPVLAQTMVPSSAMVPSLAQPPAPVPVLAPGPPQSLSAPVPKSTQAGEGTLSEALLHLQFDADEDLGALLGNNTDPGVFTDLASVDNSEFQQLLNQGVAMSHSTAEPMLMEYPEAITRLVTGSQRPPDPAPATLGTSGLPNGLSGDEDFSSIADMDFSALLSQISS

The subject of series [2] is NF-kB p65 (RelA) + NF-kB p50. Nature of the series: EMSA. The conditions noted are these: p65/p50 heterodimer, CCN2-treated HSC; 20 ul, 6 ug nuclear extract (8 ug for supershift), 1 ug poly dI:dC, 0.2 ng 32P probe, 4 C 30 min; 4% native PAGE (8% for supershift); salt and pH not stated; protein in an extract; label: 32P end label.
For series [3], the target named is T1, NF-kB p50 (rat (primary hepatic stellate cells)) (UniProt Q63369).
T1 sequence (looked up, limits assumed): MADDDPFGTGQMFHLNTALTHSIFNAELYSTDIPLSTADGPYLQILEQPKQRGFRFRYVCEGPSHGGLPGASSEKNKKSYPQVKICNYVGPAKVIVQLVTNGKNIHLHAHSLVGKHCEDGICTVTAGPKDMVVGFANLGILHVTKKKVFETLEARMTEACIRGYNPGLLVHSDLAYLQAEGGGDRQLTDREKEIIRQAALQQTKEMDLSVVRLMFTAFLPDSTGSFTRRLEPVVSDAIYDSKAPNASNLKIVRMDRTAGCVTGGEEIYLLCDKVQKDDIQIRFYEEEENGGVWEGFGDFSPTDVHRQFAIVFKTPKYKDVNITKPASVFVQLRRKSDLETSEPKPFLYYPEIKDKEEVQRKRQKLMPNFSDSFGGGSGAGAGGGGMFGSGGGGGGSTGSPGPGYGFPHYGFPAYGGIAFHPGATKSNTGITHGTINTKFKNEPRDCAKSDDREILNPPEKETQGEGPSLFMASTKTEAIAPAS
Nature of the series: EMSA. Particulars: p50/p50 homodimer, CCN2-treated HSC; 20 ul, 6 ug nuclear extract (8 ug for supershift), 1 ug poly dI:dC, 0.2 ng 32P probe, 4 C 30 min; 4% native PAGE (8% for supershift); salt and pH not stated; protein in an extract; label: 32P end label.

Series [4] deals with NF-kB p65 (RelA) (rat (primary hepatic stellate cells)) (UniProt Q7TQN4). Briefly: EMSA supershift. The conditions noted are these: p65/p65 homodimer, CCN2-treated HSC, anti-p65; 20 ul, 6 ug nuclear extract (8 ug for supershift), 1 ug poly dI:dC, 0.2 ng 32P probe, 4 C 30 min; 4% native PAGE (8% for supershift); salt and pH not stated; protein in an extract; label: 32P end label.

The subject of series [5] is NF-kB p65 (RelA) + NF-kB p50. Briefly: EMSA supershift. The conditions noted are these: p65/p50 heterodimer, CCN2-treated HSC, anti-p65 and anti-p50; 20 ul, 6 ug nuclear extract (8 ug for supershift), 1 ug poly dI:dC, 0.2 ng 32P probe, 4 C 30 min; 4% native PAGE (8% for supershift); salt and pH not stated; protein in an extract; label: 32P end label.
The target in series [6] is T1, NF-kB p50 (rat (primary hepatic stellate cells)). Nature of the series: EMSA supershift. Particulars: p50/p50 homodimer, CCN2-treated HSC, anti-p65 plus anti-p50 removes all three bands, anti-p65 only the top two; 20 ul, 6 ug nuclear extract (8 ug for supershift), 1 ug poly dI:dC, 0.2 ng 32P probe, 4 C 30 min; 4% native PAGE (8% for supershift); salt and pH not stated; protein in an extract; label: 32P end label.

Construct, isoform or probe ends are uncertain for at least one entry. Where cells or extracts were used, other partners may take part. For part of these data: A negative result means that nothing was seen under these conditions. For part of these data: Protein sequences can lack the tags named with them.

“TGAGGGGACTTCCCGAGG (double strand) [CBF1-mutant oligonucleotide]”: the binding result in series [1], in series [2] and in series [3] was “binds” each time.

Regarding “TGAGGCGACTTTCCCAGG (double strand) [p50/p65 mutant oligonucleotide]”, the binding result in series [1], in series [2] and in series [3] was “no binding” each time.

For “TGAGGGGACTTTCCCAGG (double strand) [wild type NF-kB oligonucleotide (NF-kB/CBF1 sites)]”, the binding result in series [4], in series [5] and in series [6] was “binds” in each case.
